Measurements reported in PubChem BioAssay AID1259405 (NCATS, 2018).

Aim: 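Knock-downs that lift recombinant protein yield in hamster ovary cells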 (primary screen)
Cell system: Chinese hamster CHO-K1 ovary cells with stable secreted eGFP expression
Reagents: single siRNA against mouse genes, 0.8 pmol siRNA per well (2 µl of 400 nM stock)
Time to read-out: 3 days
Measured: 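Per-well intracellular GFP measured by laser scanning cytometry, plus viability from ATP luminescence, each relative to plate median of non-targeting control wells, in %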
Direction: GFP, % of control: higher = more GFP per well, higher productivity; viability (ATP), % of control: higher = more viable cells (more ATP)
Active means: 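a knock-down is called active if GFP reaches 120% or more of non-targeting control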
Here is a random part of about 50,000 deposited reagents. About 4,000 of all reagents (8%) were called active. 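Mouse siRNA library applied to hamster cells; one well for each siRNA.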 Entries without a mark were called inactive. The numbers tell different reagents against one gene apart.

no.	Gene	siRNA no.	GFP, % of control	viability (ATP), % of control
1	Tnfsf4 (tumor necrosis factor (ligand) superfamily, member 4)	1	87.5	80
2	Tnfsf4 (tumor necrosis factor (ligand) superfamily, member 4)	2	63.1	72.2
3	Tnfsf4 (tumor necrosis factor (ligand) superfamily, member 4)	3	57.1	56.9
4	Pou2f1 (POU domain, class 2, transcription factor 1)	1	91.2	73.5
5	Pou2f1 (POU domain, class 2, transcription factor 1)	2	77.3	66.5
6	Pou2f1 (POU domain, class 2, transcription factor 1)	3	76.2	77.6
7	Atxn2l (ataxin 2-like)	1	75.2	74.9
8	Atxn2l (ataxin 2-like)	2	89.2	44.4
9	Atxn2l (ataxin 2-like)	3	73.3	69.9
10	Mphosph6 (M phase phosphoprotein 6)	1	54.1	59.6
11	Mphosph6 (M phase phosphoprotein 6)	2	101	69.4
12	Mphosph6 (M phase phosphoprotein 6)	3	69	50.2
13	Tpm3 (tropomyosin 3, gamma)	1	56.8	58.2
14	Tpm3 (tropomyosin 3, gamma)	2	69	58
15	Tpm3 (tropomyosin 3, gamma)	3	43.8	45.4
16	Mvb12b (multivesicular body subunit 12B)	1	45.8	49.4
17	Mvb12b (multivesicular body subunit 12B)	2	55.7	64.7
18	Mvb12b (multivesicular body subunit 12B)	3	86.5	121
19	Slc6a13	1	93.4	68.5
20	Slc6a13	2	85.6	64.1
21	Slc6a13	3	50.2	62.3
22	Gmnc (geminin coiled-coil domain containing)	1	37.9	50.5
23	Gmnc (geminin coiled-coil domain containing)	2	64	94.8
24	Gmnc (geminin coiled-coil domain containing)	3	71.5	77.9
25	Zfp292 (zinc finger protein 292)	1	76.5	91.8
26	Zfp292 (zinc finger protein 292)	2	78.2	63.4
27	Zfp292 (zinc finger protein 292)	3	94.1	112
28	Rpp21 (ribonuclease P 21 subunit)	1	74.5	69.7
29	Rpp21 (ribonuclease P 21 subunit)	2	55.7	72.5
30	Rpp21 (ribonuclease P 21 subunit)	3	47.9	53.7

Entries listed so far whose gene name starts with R or r (3):
Gene	siRNA no.	GFP, % of control	viability (ATP), % of control
Rpp21 (ribonuclease P 21 subunit)	1	74.5	69.7
Rpp21 (ribonuclease P 21 subunit)	2	55.7	72.5
Rpp21 (ribonuclease P 21 subunit)	3	47.9	53.7

Next reagents follow.
no.	Gene	siRNA no.	GFP, % of control	viability (ATP), % of control
31	Evc2 (EvC ciliary complex subunit 2)	1	79.7	89.1
32	Evc2 (EvC ciliary complex subunit 2)	2	78	83.9
33	Evc2 (EvC ciliary complex subunit 2)	3	60.8	68.9
34	Ppp1r11 (protein phosphatase 1, regulatory inhibitor subunit 11)	1	97.1	95.9
35	Ppp1r11 (protein phosphatase 1, regulatory inhibitor subunit 11)	2	55.8	66.3
36	Steap3 (STEAP family member 3)	1	88.7	87.3
37	Steap3 (STEAP family member 3)	2	122 (active)	102
38	Steap3 (STEAP family member 3)	3	159 (active)	68.8
39	Mtpap (mitochondrial poly(A) polymerase)	1	124 (active)	94.8
40	Mtpap (mitochondrial poly(A) polymerase)	2	62.2	70.2
41	Mtpap (mitochondrial poly(A) polymerase)	3	126 (active)	107
42	Frzb (frizzled-related protein)	1	76.2	49.8
43	Frzb (frizzled-related protein)	2	70.9	90.8
44	Frzb (frizzled-related protein)	3	52.7	43
45	Mybpc1 (myosin binding protein C, slow-type)	1	160 (active)	114
46	Mybpc1 (myosin binding protein C, slow-type)	2	72.3	67
47	H2-T13 (histocompatibility 2, T region locus 13)	1	42.8	49.2
48	H2-T13 (histocompatibility 2, T region locus 13)	2	45.3	53.1
49	H2-T13 (histocompatibility 2, T region locus 13)	3	96.3	87.7
50	Pck2 (phosphoenolpyruvate carboxykinase 2 (mitochondrial))	1	101	73.6
51	Pck2 (phosphoenolpyruvate carboxykinase 2 (mitochondrial))	2	52.8	53.5
52	Pck2 (phosphoenolpyruvate carboxykinase 2 (mitochondrial))	3	84	87.8
53	Or4a39 (olfactory receptor family 4subfamily A member 39)	1	142 (active)	74.7
54	Or4a39 (olfactory receptor family 4subfamily A member 39)	2	77.4	48.3
55	Or4a39 (olfactory receptor family 4subfamily A member 39)	3	42.9	64
56	Sephs1 (selenophosphate synthetase 1)	1	117	114
57	Sephs1 (selenophosphate synthetase 1)	2	88	152
58	Sephs1 (selenophosphate synthetase 1)	3	76.7	72.3
